Laboratory results as given in patent US12492337B2, “Fluorescent probe, preparation method therefor and use thereof” (FLUORESCENCE DIAGNOSIS (SHANGHAI) BIOTECH COMPANY, priority 2017, dated 2025).
Some entries share one result that the patent states for a list of compounds.

Tested on: Hela cells co-transfected with pcdna3.1-SNAP-NLS and pcdna3.1-mito-HaloTag
Assay: Two-color orthogonal labeling of Hela cells co-transfected with SNAP-NLS and mito-HaloTag (Example 91)
Assay type: cell-based
Conditions: 0.2 μM reference probe 85 and probe 57, 2 hours, no washing

Row | SMILES | co-localization coefficient of the two fluorescence channels
1 | CN(C)c1ccc(/C=C(\C#N)C(=O)NCCOCCOCCCCCCCl)cc1 [Probe 57] | less than 0.1
2 | CN(CCOC(=O)NCc1ccc(COc2nc(N)nc3[nH]cnc23)cc1)c1cc2c(s1)-c1sc(/C=C(\C#N)C(=O)OC(C)(C)C)cc1C2(C)C [Reference Probe85, reference compound] | less than 0.1
